# Experimental data from paper PMC10112799.
# Chains of the proteins cited; added tags and fusions are not shown. Lines headed by an entry give the natural chain unless they say otherwise; changes in a name come on top. A line that says so, or that is headed by a name, gives the form on record, which may keep a tag or linker.
# TLR2-Cub-TF bait W684A/F719A double mutant (O60603, form named): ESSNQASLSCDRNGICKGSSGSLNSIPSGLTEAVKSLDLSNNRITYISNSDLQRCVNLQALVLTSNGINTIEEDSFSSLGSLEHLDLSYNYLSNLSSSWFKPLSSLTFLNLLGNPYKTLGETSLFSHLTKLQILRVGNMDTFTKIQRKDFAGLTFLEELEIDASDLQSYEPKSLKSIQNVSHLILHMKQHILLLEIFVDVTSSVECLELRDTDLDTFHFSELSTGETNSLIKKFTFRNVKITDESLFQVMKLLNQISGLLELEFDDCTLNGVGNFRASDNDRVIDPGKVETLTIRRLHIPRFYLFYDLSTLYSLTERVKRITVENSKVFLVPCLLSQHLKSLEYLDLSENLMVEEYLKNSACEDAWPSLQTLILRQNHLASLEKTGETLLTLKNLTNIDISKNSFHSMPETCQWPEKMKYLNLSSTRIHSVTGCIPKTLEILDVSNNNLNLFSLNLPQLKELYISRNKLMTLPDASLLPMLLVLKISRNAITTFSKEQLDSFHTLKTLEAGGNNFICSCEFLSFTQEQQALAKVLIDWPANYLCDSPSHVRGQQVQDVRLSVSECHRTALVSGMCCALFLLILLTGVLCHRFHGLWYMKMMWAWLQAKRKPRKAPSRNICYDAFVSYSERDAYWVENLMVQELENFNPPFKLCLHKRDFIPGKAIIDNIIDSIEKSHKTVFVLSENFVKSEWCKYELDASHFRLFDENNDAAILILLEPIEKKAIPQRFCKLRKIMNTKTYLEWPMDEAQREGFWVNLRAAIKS
# TLR2-Cub-TF bait F719A (O60603, form named): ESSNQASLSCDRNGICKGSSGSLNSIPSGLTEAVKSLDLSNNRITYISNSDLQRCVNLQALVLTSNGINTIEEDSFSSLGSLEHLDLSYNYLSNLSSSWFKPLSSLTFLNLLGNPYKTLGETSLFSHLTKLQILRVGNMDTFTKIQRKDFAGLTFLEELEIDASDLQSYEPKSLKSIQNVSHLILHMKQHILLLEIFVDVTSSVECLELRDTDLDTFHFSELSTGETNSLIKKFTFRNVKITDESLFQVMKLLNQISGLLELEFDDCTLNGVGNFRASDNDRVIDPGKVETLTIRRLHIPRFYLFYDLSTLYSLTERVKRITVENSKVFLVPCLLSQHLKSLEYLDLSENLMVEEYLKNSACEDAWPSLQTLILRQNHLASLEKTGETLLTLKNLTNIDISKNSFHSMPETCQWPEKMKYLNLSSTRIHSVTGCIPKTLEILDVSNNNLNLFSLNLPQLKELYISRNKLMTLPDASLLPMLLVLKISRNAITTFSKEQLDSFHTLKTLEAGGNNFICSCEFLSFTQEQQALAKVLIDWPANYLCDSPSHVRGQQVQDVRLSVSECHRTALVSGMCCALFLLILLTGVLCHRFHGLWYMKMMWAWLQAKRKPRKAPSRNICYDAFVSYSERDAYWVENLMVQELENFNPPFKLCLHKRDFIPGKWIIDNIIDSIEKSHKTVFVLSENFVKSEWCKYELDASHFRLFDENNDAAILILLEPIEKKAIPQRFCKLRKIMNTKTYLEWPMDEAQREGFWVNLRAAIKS
# TLR2-Cub-TF bait W684A (O60603, form named): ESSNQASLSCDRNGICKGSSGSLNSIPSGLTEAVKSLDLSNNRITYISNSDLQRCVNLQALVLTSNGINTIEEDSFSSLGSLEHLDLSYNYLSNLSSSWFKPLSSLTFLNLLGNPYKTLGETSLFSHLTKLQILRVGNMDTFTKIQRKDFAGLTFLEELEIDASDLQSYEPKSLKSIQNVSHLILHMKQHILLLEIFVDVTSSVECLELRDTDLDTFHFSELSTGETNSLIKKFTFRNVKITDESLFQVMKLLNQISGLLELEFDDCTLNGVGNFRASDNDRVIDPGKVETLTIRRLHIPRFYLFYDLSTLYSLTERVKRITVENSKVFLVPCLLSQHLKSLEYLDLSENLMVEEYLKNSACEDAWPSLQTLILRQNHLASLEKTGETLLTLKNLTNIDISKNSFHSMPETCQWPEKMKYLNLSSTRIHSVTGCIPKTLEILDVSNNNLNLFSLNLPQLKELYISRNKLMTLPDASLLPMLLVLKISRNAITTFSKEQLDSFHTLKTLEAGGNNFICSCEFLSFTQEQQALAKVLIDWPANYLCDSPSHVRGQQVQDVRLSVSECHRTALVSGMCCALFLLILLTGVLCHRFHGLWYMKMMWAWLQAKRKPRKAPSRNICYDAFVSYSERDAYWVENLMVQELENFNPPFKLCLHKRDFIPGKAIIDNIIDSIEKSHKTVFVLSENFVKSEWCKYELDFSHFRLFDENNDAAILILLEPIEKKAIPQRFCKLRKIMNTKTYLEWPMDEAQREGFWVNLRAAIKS
# No constants are given. Whether binding was seen depends on the method and setting. For part of these data: A result given as binding can be weak or reduced; the word gives no strength.
# Columns and labels:
# Assay in all cases: two-hybrid; Mammalian Membrane Two-Hybrid (MaMTH, split ubiquitin); TLR2-Cub-TF bait and Nub preys co-transfected in HEK293T 5xGAL4UAS-luciferase reporter cells; untreated, PAM, or P. gingivalis MOI 10 for 8 h; luciferase read-out
# [1] = biological target: TLR2-Cub-TF bait W684A/F719A double mutant (UniProt O60603)
# [2] = biological target: TLR2-Cub-TF bait F719A (UniProt O60603)
# [3] = biological target: TLR2-Cub-TF bait W684A (UniProt O60603)
substance,measurement,setting,value
VCL-Nub prey (from UniProt P18206-2),binding,[1],no binding
same,binding,[2],binds
same,binding,[3],binds
